The nature of series [1]: SABRE 13C and 15N hyperpolarisation of pyrazine in CDCl3/D2O. The conditions noted are these: 20-fold excess pz, IMes iridium catalyst 5 mM, 0.3 ml CDCl3 + 0.3 ml D2O, NaCl 0.34 mmol.
Series [2] in a line: SABRE 1H hyperpolarisation, NMR signal enhancement in biphasic organic/D2O solvent.
A short description of series [3]: 1D/2D MRI of SABRE hyperpolarised substrate, distribution between organic and aqueous phase. As to conditions: 7-fold excess, CDCl3/D2O, NaCl, RARE protocol.

The record followed here is US12350350B2, “Hyperpolarisation in aqueous media via sabre” (UNIVERSITY OF YORK, priority 2017, dated 2025).

On to `c1cnccn1` [pyrazine], for which the 13C signal enhancement in series [1] (transfer at 30 G) came to 180 fold. The 15N signal enhancement in series [1] (transfer at ~0 G in μ-metal shield) is reported as 3000 fold. As for `[2H]c1cc([2H])c(C(N)=O)cn1` [d2-nicotinamide], the “enhancement in aqueous phase” value in series [2] (D2O layer containing at least 4.5% (weight) of NaCl) is “High enhancement”. Regarding `Fc1cccnc1` [3-fluoropyridine], the “enhancement, organic phase compared with aqueous phase” value in series [2] (CDCl3/D2O 0.3:0.3, NaCl 0.017 mmol) is given as “enhanced much better in organic phase”. For `c1ccnnc1` [pyridazine], in series [3], the “2D MRI signal in the aqueous phase after phase separation” value is “excellent signal enhancement” and the “2D MRI signal in the organic phase after phase separation” value was “almost no hyperpolarised pyridazine response”.
